The data set can be described thus: general procedure: solution-phase peptide synthesis; DPPA/N-methylmorpholine; active esters (Boc-Trp-OSu, trichlorophenyl ester); iso.

Some peptides are written in HELM: one residue between dots, names in brackets for other building blocks, links after the first $.

Regarding Boc-Trp-Leu-Asp(Bn)-α-Nal-NH₂, where the note is “coupling step”, the step yield is 70%. On to Ctp-Leu-Asp(Bn)-Phe-NHNH-Z, for which the step yield (coupling step) is recorded as 60%. Consider Ctp-Pip-Asp(O-t-Bu)-Phe-NH₂, for which the step yield (coupling step) was determined as 52%. Turning to “Boc-Trp-Leu-Asp-3(S)-benzyl-2-oxo-4-piperazine”, under “late stage modification step”, the step yield was 19%. The substance Ctp-Tpp-Asp(Bn)-Phe-NH₂ displayed a step yield (coupling step) of 47%. On the same count and under the same terms, under Ctp-Tpp-Asp(OBn)(NMe)Phe-NH2 stands 57%; under Boc-5-amino-pentenoyl-Leu-Asp-Phe-NH₂, 50%; under “Boc-Trp-Leu-Asp(Bn)-3(S)-benzyl-2-oxo-4-piperazine”, 84%. “PEPTIDE1{[cap_Boc].W.L.D.[a1Nal].[am]}$$$$V2.0” registered a step yield (late stage modification step) of 71%.

Consider Boc-Trp-Leu-Asp(Bn)-β-Nal-NH₂, for which the step yield (coupling step) was found to be 73%. Take Boc-Trp-Tpp-Asp(Bn)-Phe-NH₂: the step yield (coupling step) stood at 83%.

(Values after patent EP0405506A1 (ABBOTT LABORATORIES, priority 1989, dated 1991).)
